Measurements taken from article PMC8058163 (Clinical pharmacology and therapeutics, 2020).

Key:
[1] = both, human, in vivo
clinical = details: both, human, in vivo

NS(=O)(=O)c1cc(C(=O)O)c(NCc2ccco2)cc1Cl [Furosemide, furosemide]
AUC0–6, goldenseal exposure / baseline ratio [1]: 1.05 [0.96–1.15] | ClR, goldenseal exposure / baseline ratio [1]: 1.00 [0.91–1.09] | Cmax, goldenseal exposure / baseline ratio [1]: 1.06 [0.92–1.22] | AUC(0-t) (clinical): 0.18 µM·h | CL renal (clinical): 122 mL/min | Cmax (clinical): 110 nM | AUC(0-t) (clinical; po): 0.17 µM·h | CL renal (clinical; po): 122 mL/min | Cmax (clinical; po): 100 nM
